# At least one structure is not confirmed: it was looked up by name or label, or the drawing left a doubt.
# Experiments:
# Format in all cases: in vivo
# [1] = test system: rat antigen-induced asthma model; assay: Rat antigen-induced asthma model, eosinophils in bronchoalveolar lavage fluid; conditions: Day 7 after single intratracheal administration
# Method: Intraperitoneal administration of 1 mL of aluminum hydroxide gel containing ovalbumin (1 mg/mL) was performed 3 times with one day interval. 14 Days after performing the first sensitization, intraperitoneal administration of 1 mL of aluminum hydroxide gel containing ovalbumin (1 mg/mL) was performed again followed by the second sensitization. 7 Days after the second sensitization, inhalation exposure of physiological saline (10 mg/mL) containing ovalbumin was performed by using a nebulizer five times with one day interval in order to induce asthma.
# The 0.6 mg/mL prednisolone suspension was orally administered by using a sonde for oral administration under no anesthesia to have prednisolone amount of 3 mg/kg.
# Meanwhile, the test was performed with n=6 to 12. […]
# Subsequently, a smear sample of the suspension was prepared followed by Diff-Quik staining. According to cell fractionation, ratio of eosinophil in white blood cells was calculated. According to integration with the number of white blood cells in bronchoalveolar lavage fluid, the number of […] in bronchoalveolar lavage fluid was calculated. Meanwhile, the number of white blood cells in bronchoalveolar lavage fluid was measured by using a blood cell counting chamber. […]
# Dose responsiveness of the compound va in an OVA sensitized rat model was determined in the same manner as (Test example B2). […]
# [2] = test system: mouse antigen-induced airway hypersensitivity model; assay: Mouse antigen-induced airway hypersensitivity model (AHR, Penh, PC100); conditions: single intratracheal administration 40 μL, 1 week before the evaluation
# Method: For the evaluation, BALB/cCrSlc (Japan SLC, Inc., 11-week old) was used. […] Intratracheal administration (volume: 40 μL) of the budesonide suspension, mixture of budesonide and chondroitin sulfate, and an aqueous solution of the compound va was performed by using a glass microsyringe (Ito Micro Syringe, manufactured by ITO SEISAKUSHO CO., LTD.) after fixing the mouse on its back under general anesthesia. […] The administration was performed only once, and it was performed 6 days after the second sensitization. Meanwhile, the test was performed with n=6. Airway hyper responsiveness (AHR) evaluation was performed as described below. On Day 13 after the second sensitization, the mouse was forced to inhale metacholine (hereinbelow, MCh) of 0, 5, 10 and 20 mM, and the airway resistance parameter (Penh) at 3 minutes after the inhalation of metacholine with different concentrations was measured by a device for measuring unrestrained respiratory function (manufactured by Buxco Research System). AUC value of the Penh value was measured, and a graph of MCh concentration vs. AUC was established.
# [3] = test system: mouse model having antigen-induced rhinitis; assay: Mouse model having antigen-induced rhinitis, cough number; conditions: single intranasal administration 20 μL
# Method: As a negative control, phosphate buffered saline was used. As a comparative control, 4 mg/mL budesonide suspension was used. […] From Day 1 after the final nasal cavity sensitization—induction, 20 μL of ovalbumin physiological saline (40 mg/mL) was intranasally administered with 24 hour interval to induce a rhinitis reaction. The induction of the rhinitis reaction was performed 8 times in total for 8 days. […] The phosphate buffered saline, aqueous solution of the compound va, and budesonide suspension were administered only once on the day of inducing initial rhinitis reaction, and 1 hour before administering physiological saline containing ovalbumin. Meanwhile, the test was basically performed with n=6. From the first day to Day 7 after inducing initial rhinitis reaction, number of coughs during 10 minutes after the administration of ovalbumin-containing physiological saline was measured.
SMILES,eosinophil infiltration compared to phosphate buffered saline group (in words) [1],"inhibition of enhanced sensitivity to MCh (airway hyper responsiveness, PC100) [2]",average cough number on the administration day vs phosphate buffered saline group [3],change in average cough number Day 1 to Day 7 and total cough number during 8 days [3]
"C[C@H]1C[C@H]2[C@@H]3CCC4=CC(=O)C=C[C@]4(C)[C@@]3(F)[C@@H](O)C[C@]2(C)[C@@]1(O)C(=O)CO [Betamethasone, betamethasone]",no influence on eosinophil infiltration,,,
CCCC1O[C@@H]2C[C@H]3[C@@H]4CCC5=CC(=O)C=C[C@]5(C)[C@H]4[C@@H](O)C[C@]3(C)[C@]2(C(=O)CO)O1 (stereo partly shown) [budesonide],,no inhibition was observed,inhibited average cough number,no influence was observed

# — US20160158369A1, “PHARMACEUTICAL COMPOSITION FOR RESPIRATORY ADMINISTRATION” (SEIKAGAKU CORPORATION, priority 2013, published 2016)
